# Measured values published in article PMC12431657, “Discovery and mechanistic insights of dibenzoylmethane as a broad spectrum inhibitor of coronavirus” (PLOS Pathogens, 2025).
# Counter-ions that a name gives are not always drawn. Like-named read-outs stand apart in the source and are kept apart here. Among all 3,300 compounds or so, about 60 (2%) showed an effect of 50% or more. This is one part of the list.
# Test system: HCoV-OC43
# Set-up: species or system RD; HTS, protection from HCoV-OC43 induced cell death, luminescent cell viability (CellCounting-Lite 2.0), inhibition rate
# Details: 24 h post infection, 1 h compound pre-incubation, 10 µM, inhibitor
SMILES,OC43 Inhibition rate [%],"OC43 Inhibition rate (OC43 Inhibition rate, 24 h) [%]"
CC(=O)OCCC(C)CCC=C(C)C (stereo not shown) [Citronellyl acetate],0.5,–
Nc1nc2c(ncn2[C@H]2C[C@H](O)[C@@H](CO)O2)c(=O)[nH]1 [2'-Deoxyguanosine monohydrate],–,-0.2
CN(C)C(N)=NCCC[C@H](N)C(=O)O [Asymmetric dimethylarginine],-3.3,–
CCCCCCCCCCCCCC(=O)O[C@H]1CC[C@@]2(C)C(=CC[C@H]3[C@@H]4CC[C@H]([C@H](C)CCCC(C)C)[C@@]4(C)CC[C@@H]32)C1 [Cholesterol myristate],-0.2,–
CCCCCC/C(C=O)=C\c1ccccc1 [α-Hexylcinnamaldehyde],-0.2,–
CC(C)[C@H](C)CC[C@@H](C)[C@H]1CC[C@H]2[C@@H]3CC=C4C[C@@H](O)CC[C@]4(C)[C@H]3CC[C@]12C [Campesterol],8.7,–
N[C@@H](CS(=O)O)C(=O)O [L-Cysteinesulfinic acid],11.1,–
COc1cc2oc(=O)cc(-c3ccccc3)c2cc1O [Dalbergin],0,–
Cc1c(O)cc2c(c1O)C(=O)c1ccccc1C2=O [Rubiadin],0.3,–
C=C1C(=O)[C@@]23[C@H](O)C[C@@H]4C(C)(C)C(=O)CC[C@@]4(C)[C@@H]2CC[C@@H]1[C@H]3O [Glaucocalyxin A],-9.7,–
COc1cc2c(c(OC)c1OC)-c1c(cc(OC)c(OC)c1OC)C[C@H](C)[C@H](C)C2 [Schisandrin A],19.5,–
CCCCCCCCCC=O [Decyl aldehyde],-0.7,–
COc1ccc(C[C@H]2COC(=O)[C@]2(O)Cc2ccc(O[C@@H]3O[C@H](CO)[C@@H](O)[C@H](O)[C@H]3O)c(OC)c2)cc1OC [Tracheloside],-0.8,–
Cc1ncc(C[n+]2csc(CCOP(=O)(O)OP(=O)(O)O)c2C)c(N)n1 [Thiamine pyrophosphate],-6,–
CCOC(=O)/C=C/C(=O)OCC [Diethyl fumarate],0.5,–
Cn1cnc2c(ncn2[C@@H]2O[C@H](CO)[C@@H](O)[C@H]2O)c1=O [1-Methylinosine],0.1,–
C[C@H](O)[C@H](N)C(=O)O [L-Allothreonine],3.7,–
CC(=O)OC(C)(C)CCC(=O)[C@](C)(O)[C@H]1[C@H](O)C[C@@]2(C)[C@@H]3CC=C4[C@@H](C[C@H](O)[C@@H](O)C4(C)C)[C@]3(C)C(=O)C[C@]12C [Cucurbitacin IIa],0.7,–
CN(CC(=O)O)C(=N)N [Creatine],5.6,–
CC(=O)Oc1ccccc1 [Phenyl acetate],-0.5,–
O=C[C@H](O)[C@@H](O)[C@H](O)[C@H](O)CO[C@H]1O[C@H](CO[C@H]2O[C@H](CO)[C@H](O)[C@H](O)[C@H]2O)[C@H](O)[C@H](O)[C@H]1O [Manninotriose],-0.6,–
[C-]#[N+]C(=C\c1ccc(OC)cc1)/C(=C/c1ccc(OC)cc1)[N+]#[C-] [Xanthocillin X permethyl ether],-4.3,–
C[C@H](CCC(=O)NCCS(=O)(=O)O)[C@H]1CC[C@H]2[C@@H]3CC[C@@H]4C[C@H](O)CC[C@]4(C)[C@H]3C[C@H](O)[C@]12C [Taurodeoxycholate (sodium salt)],-0.1,–
COC(=O)C1=CO[C@@H](C)[C@H]2CN3CC[C@]4(C(=O)Nc5ccccc54)[C@@H]3C[C@H]12 [Mitraphylline],1.7,–
COc1ccc(/C=C/C(=O)CC(=O)/C=C/c2ccc(OC)c(OC)c2)cc1 [Di-O-methyldemethoxycurcumin],0.9,–
C=C1[C@@H]2CC[C@H]3[C@]4(C)C[C@H](O[C@@H]5O[C@H](CO)[C@@H](OS(=O)(=O)O)[C@H](OS(=O)(=O)O)[C@H]5OC(=O)CC(C)C)CC(C(=O)O)(C(=O)O)[C@H]4CC[C@]3(C2)[C@H]1O [Carboxyatractyloside (dipotassium)],-0.1,–
CC(C)=CCc1c2c(c(O)c3c1O[C@]14C(=C[C@@H]5C[C@@]1(C/C=C(/C)C(=O)O)C(C)(C)O[C@H]4C5=O)C3=O)C=CC(C)(C)O2 [Morellic acid],-4,–
C[C@@H]1C[C@H]2OC(=O)[C@@]3(C)CCC[C@@](C)([C@@H]23)[C@@]1(O)CCc1ccoc1 [Marrubiin],0.3,–

SMILES,OC43 Inhibition rate [%],"OC43 Inhibition rate (OC43 Inhibition rate, 24 h) [%]"
O=C1N[C@@H](Cc2cnc[nH]2)C(=O)N2CCC[C@@H]12 [Cyclo(his-pro) (TFA)],0.7,–
Cn1cncc1C[C@H](NC(=O)CCN)C(=O)O [L-Anserine nitrate],–,-3.8
O=c1c(O[C@@H]2O[C@H](CO)[C@H](O)[C@H](O)[C@H]2O)c(-c2ccc(O)c(O)c2)oc2cc(O)cc(O)c12 [Hyperoside],3,–
CC(=O)/C=C/C1=C(C)CCCC1(C)C [β-Ionone],-0.1,–
COc1cc([C@H]2OC[C@H]3[C@@H]2CO[C@@H]3c2ccc(O[C@@H]3O[C@H](CO)[C@@H](O)[C@H](O)[C@H]3O)c(OC)c2)ccc1O [Pinoresinol 4-O-β-D-glucopyranoside],3.4,–
COC(=O)CC/C(C)=C/Cc1c(O)c2c(c(C)c1OC)COC2=O [Methyl mycophenolate],61.8,–
OC[C@H]1O[C@@H](Oc2cc(/C=C/c3cc(O)cc(O)c3)ccc2O)[C@H](O)[C@@H](O)[C@@H]1O [Piceatannol 3'-O-glucoside],2,–
C[C@@H]1C(=O)O[C@H]2[C@H](O)[C@@]34[C@H]5C[C@@H](C(C)(C)C)[C@]36[C@@H](OC(=O)[C@@H]6O)O[C@@]4(C(=O)O5)[C@@]12O [Ginkgolide B],-0.2,–
CC1(C)CCC[C@]2(C)[C@H]3CCO[C@]3(C)CC[C@@H]12 [Ambroxide],-0.5,–
O=C(O)CCc1cccc(O)c1 [3-(3-Hydroxyphenyl)propionic acid],-0.3,–
COC(=O)CCc1ccccc1 [Methyl 3-phenylpropanoate],0,–
CC(C)=CCC[C@](C)(O)[C@H]1CC[C@]2(C)[C@@H]1[C@H](O)C[C@@H]1[C@@]3(C)CC[C@H](O)C(C)(C)[C@@H]3[C@@H](O[C@@H]3O[C@H](CO)[C@@H](O)[C@H](O)[C@H]3O[C@@H]3OC[C@@H](O)[C@H](O)[C@H]3O)C[C@]12C [Notoginsenoside R2],0.5,–
O=c1cc(CCc2ccccc2)oc2c1[C@H](O)[C@@H](O)[C@@H](O)[C@@H]2O [Agarotetrol],-0.2,–
CCCCCCCC/C=C/CCCCCCCC(=O)O [Elaidic acid],-0.4,–
Oc1cc(O)c2c(c1)O[C@@]1(c3ccc(O)c(O)c3)Oc3cc(O)c4c(c3[C@@H]2[C@H]1O)O[C@H](c1ccc(O)c(O)c1)[C@H](O)C4 [Procyanidin A2],-2.4,–
c1cc2c(cc1[C@H]1OC[C@@H]3[C@H]1CO[C@H]3c1ccc3c(c1)OCO3)OCO2 [(-)-Asarinin],10.9,–
C[C@@H]1[C@H]2[C@H](O[C@@H]3O[C@H](CO)[C@@H](O)[C@H](O)[C@H]3O)OC=C(C(=O)O)[C@H]2C[C@@H]1O [Loganic acid],-0.4,–
C[C@H](CC[C@@H](O[C@@H]1O[C@H](CO[C@@H]2O[C@H](CO)[C@@H](O)[C@H](O)[C@H]2O)[C@@H](O)[C@H](O)[C@H]1O[C@@H]1O[C@H](CO)[C@@H](O)[C@H](O)[C@H]1O)C(C)(C)O)[C@H]1CC[C@@]2(C)[C@@H]3CC=C4[C@@H](CC[C@H](O[C@@H]5O[C@H](CO)[C@@H](O[C@@H]6O[C@H](CO)[C@@H](O)[C@H](O)[C@H]6O)[C@H](O)[C@H]5O)C4(C)C)[C@]3(C)[C@H](O)C[C@]12C [Isomogroside V],0.4,–
COc1cc2c(c(OC)c1OC)-c1c(cc3c(c1OC)OCO3)C[C@H](C)[C@H](C)C2 [Schisandrin B],2,–
C[C@@H]1O[C@@H](OC[C@H]2O[C@@H](OCCc3ccc(O)c(O)c3)[C@H](O)[C@@H](OC(=O)/C=C/c3ccc(O)c(O)c3)[C@@H]2O)[C@H](O)[C@H](O)[C@H]1O [Isoforsythiaside],–,-0.9
C/C=C/C=C/C=C\CC/C=C/C(=O)NCC(C)(C)O [Hydroxy-α-sanshool],2.3,–
COc1c(O)cc2oc(-c3ccccc3)cc(=O)c2c1O [Oroxylin A],1.5,–
CN1CCc2cc3c(cc2C1O)OCO3 (stereo not shown) [Hydrastinine (hydrochloride)],–,-0.5
"CC(=O)N[C@H]1[C@H](O[C@@H]([C@H](O)[C@H](C=O)NC(C)=O)[C@H](O)CO)O[C@H](CO)[C@@H](O[C@@H]2O[C@H](CO)[C@@H](O)[C@H](O)[C@H]2NC(C)=O)[C@@H]1O [N,N',N''-Triacetylchitotriose]",0.7,–
C/C(=C\C(=O)OCCCCCCCCC(=O)O)C[C@@H]1OC[C@H](C[C@@H]2O[C@H]2[C@@H](C)[C@H](C)O)[C@@H](O)[C@H]1O [Mupirocin],32.7,–
CCCCCCCCCCCCCCCC(=O)O [Palmitic acid],-7.6,–
CC(C)=CCC[C@](C)(O[C@@H]1O[C@H](CO[C@@H]2O[C@@H](CO)[C@H](O)[C@H]2O)[C@@H](O)[C@H](O)[C@H]1O)[C@H]1CC[C@]2(C)[C@@H]1[C@H](O)C[C@@H]1[C@@]3(C)CC[C@H](O[C@@H]4O[C@H](CO)[C@@H](O)[C@H](O)[C@H]4O)C(C)(C)[C@@H]3CC[C@]12C [Notoginsenoside Fe],-1.4,–

# Some of these compounds in order of count of non-hydrogen atoms, largest number first:
SMILES,OC43 Inhibition rate [%],"OC43 Inhibition rate (OC43 Inhibition rate, 24 h) [%]"
c1cc2c(cc1[C@H]1OC[C@@H]3[C@H]1CO[C@H]3c1ccc3c(c1)OCO3)OCO2 [(-)-Asarinin],10.9,–
CCCCCCCC/C=C/CCCCCCCC(=O)O [Elaidic acid],-0.4,–
CC1(C)CCC[C@]2(C)[C@H]3CCO[C@]3(C)CC[C@@H]12 [Ambroxide],-0.5,–
